PubChem BioAssay AID1259254 – NCATS | 2017

Assay: 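Finding genes that stop cells copying their DNA twice in one cycle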 (primary screen)
System: human HCT116 colorectal cancer cells
Reagent: single siRNA against human genes
Time to read-out: 3 days
Measurement: 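Imaged Hoechst DNA stain sorts each cell into a cycle phase by DNA amount; per plate, G2 fraction set to 0% for non-targeting and 100% for GMNN siRNA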
Direction: G2 robust z-score and G2 cells, % of GMNN control: higher = more G2 cells, more excess DNA replication
Active means: 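An siRNA counts as active if its G2 robust z-score lies at least 5 MADs above the screen median; here such calls match roughly 38% of GMNN control or more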
The whole screen tested about 59,000 reagents; below is a random part of them. About 1,550 of them (2.6%) were called active. 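G2 share is only a proxy for re-replication; each gene was hit by three separate siRNAs, and active genes were retested.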 Entries without a mark were called inactive. Reagents against one gene are numbered here. Not all columns of the deposit are shown. The record does not give: the amount of reagent.

no.	Gene	reagent no.	G2 robust z-score	G2 cells, % of GMNN control
1	TRO	1	-0.183	1.68
2	TRO	2	0.753	8.27
3	TRO	3	-0.727	-2.15
4	MYBPC2	1	0.161	4.1
5	MYBPC2	2	-0.817	-2.78
6	MYBPC2	3	-0.458	-0.254
7	GTF2IRD1	1	0.805	8.63
8	GTF2IRD1	2	0.614	7.29
9	GTF2IRD1	3	0.272	4.88
10	P3H1	1	-0.275	1.04
11	P3H1	2	-0.661	-1.68
12	P3H1	3	1.65	14.6
13	EP400P1	1	-0.776	-2.5
14	EP400P1	2	-0.639	-1.53
15	EP400P1	3	-0.243	1.26
16	PLA2G2C	1	-0.443	-0.149
17	PLA2G2C	2	5.36 (active)	40.7
18	PLA2G2C	3	-0.633	-1.48
19	SACK1A	1	-1.09	-4.71
20	SACK1A	2	-0.0225	2.81
21	SACK1A	3	-0.858	-3.07
22	CDK6	1	-1.5	-7.57
23	CDK6	2	-0.836	-2.91
24	CDK6	3	-1.15	-5.14
25	CAPN9	1	0.394	5.74
26	CAPN9	2	0.423	5.95
27	CAPN9	3	-0.918	-3.49

No new results follow: 12 of the entries above.
no.	Gene	reagent no.	G2 robust z-score	G2 cells, % of GMNN control
4	MYBPC2	1	0.161	4.1
5	MYBPC2	2	-0.817	-2.78
6	MYBPC2	3	-0.458	-0.254
7	GTF2IRD1	1	0.805	8.63
8	GTF2IRD1	2	0.614	7.29
9	GTF2IRD1	3	0.272	4.88
10	P3H1	1	-0.275	1.04
11	P3H1	2	-0.661	-1.68
12	P3H1	3	1.65	14.6
13	EP400P1	1	-0.776	-2.5
14	EP400P1	2	-0.639	-1.53
15	EP400P1	3	-0.243	1.26

Additional entries follow.
no.	Gene	reagent no.	G2 robust z-score	G2 cells, % of GMNN control
28	RPGRIP1	1	0.647	7.52
29	RPGRIP1	2	-0.369	0.368
30	RPGRIP1	3	-0.942	-3.66
31	AMIGO3	1	-0.469	-0.332
32	AMIGO3	2	-0.734	-2.19
33	AMIGO3	3	0.342	5.38
34	GPS2	1	-1.07	-4.56
35	GPS2	2	2.51	20.6
36	GPS2	3	6.08 (active)	45.7
37	CCNA2	1	1.01	10.1
38	CCNA2	2	7.86 (active)	58.3
39	CCNA2	3	4.96	37.9
40	MAFK	1	-0.688	-1.87
41	MAFK	2	0.0878	3.58
42	MAFK	3	-0.399	0.159
43	SPTBN4	1	0.0797	3.53
44	SPTBN4	2	-0.123	2.1
45	SPTBN4	3	-0.396	0.178
46	ELAVL3	1	-0.591	-1.19
47	ELAVL3	2	-0.766	-2.42
48	ELAVL3	3	-0.757	-2.36
49	NMUR1	1	-0.888	-3.28
50	NMUR1	2	-0.764	-2.41
51	NMUR1	3	2.25	18.8
52	AP3D1	1	-0.151	1.9
53	AP3D1	2	-1.18	-5.35
54	AP3D1	3	0.268	4.85
55	SLC3A2	1	-0.741	-2.25
56	SLC3A2	2	0.0411	3.26
57	SLC3A2	3	-0.103	2.24
58	TBX19	1	2.57	21
59	TBX19	2	-0.868	-3.14
60	TBX19	3	-0.336	0.601
61	ASCL2	1	0.298	5.06
62	ASCL2	2	3.25	25.8
63	ASCL2	3	0.191	4.31
64	PACSIN3	1	3.28	26
65	PACSIN3	2	-0.542	-0.847
66	PACSIN3	3	-0.484	-0.436
67	ASB9	1	1.97	16.8
68	ASB9	2	1.35	12.5
69	ASB9	3	-0.489	-0.473
